{"source": "paper PMC5058510", "key": {"[1]": {"biological_target": "T1, biotinylated GW-Q6 peptide", "T1 sequence (peptide, biotin (position not stated))": "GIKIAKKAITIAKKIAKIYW", "assay": "pull-down; biotinylated GW-Q6 immobilised on streptavidin-conjugated beads (2 hrs, 4°C) in PC buffer (20 mM Hepes, pH 7.4, 0.05 M NaCl), no sarkosyl; mixed with recombinant OprI overnight at 4°C, washed three times; non-reducing SDS-PAGE/Coomassie blue staining; both purified"}, "[2]": {"biological_target": "T1, biotinylated GW-Q6 peptide", "assay": "pull-down; biotinylated GW-Q6 immobilised on streptavidin-conjugated beads (2 hrs, 4°C) in sarkosyl solution (10 mM sodium phosphate, pH 7.4, 0.15 M NaCl, 0.075% sodium N-dodecanoylsarcosinate); mixed with recombinant OprI overnight at 4°C, washed three times; non-reducing SDS-PAGE/Coomassie blue staining; both purified"}}, "note": "No constants are given. Whether binding was seen depends on the method and setting. Some results given as binding are weak or reduced against the parent protein; the word gives no strength.", "data": [{"substance": "recombinant OprI (from UniProt P11221 20-83)", "values": [{"measurement": "binding", "setting": "[1]", "value": "binds weakly"}, {"measurement": "binding", "setting": "[2]", "value": "binds"}]}]}
